Series [1] is described as follows: ECL activity of tertiary amines as coreactants, streptavidin-coated PT plates (Table IIb). Particulars: PT plates; for ECL Bound: 0.3 nM Bt-IgG* bound, washed; for ECL Free: 10 nM IgG* in solution; for ECL Background: 200 mM tertiary amine, 200 mM phosphate, 0.1% Triton X-100, pH 7.5.
Series [2] in a line: ECL activity of tertiary amines as coreactants, streptavidin-coated NPT plates (Table IIa). Particulars: NPT plates; for ECL Bound: 0.3 nM Bt-IgG* bound, washed; for ECL Free: 10 nM IgG* in solution; for ECL Background: 200 mM tertiary amine, 200 mM phosphate, 0.1% Triton X-100, pH 7.5.

On to `OCC(CO)(CO)NCCCNC(CO)(CO)CO` [1,3-Bis[tris(hydroxymethyl)methylamino]propane], for which, in series [1], the Bound/Background worked out at 14, the Bound/Free stood at 12, the “ECL Bound” value stood at 2559 and the “ECL Free” value was 382. In series [1], the “ECL Background” value is on record as 181. Also, in series [2], the Bound/Background stood at 245, the Bound/Free was found to be 12, the “ECL Bound” value was found to be 61712 and the “ECL Free” value was determined as 5207. Also, the “ECL Background” value in series [2] is on record as 252.

Turning to `O=C(O)CN(CCCCCCN(CC(=O)O)CC(=O)O)CC(=O)O` [1,6-diaminohexane-N,N,N′,N′-tetraacetic acid], in series [1], the Bound/Background is given as 20, the Bound/Free came out at 10, the “ECL Bound” value is given as 7898 and the “ECL Free” value was 1160. For the same molecule, the “ECL Background” value in series [1] worked out at 389. In series [2], the Bound/Background turned out to be 62, the Bound/Free is 14, the “ECL Bound” value amounted to 29011 and the “ECL Free” value is recorded as 2522. The “ECL Background” value in series [2] is 471.

Regarding `CC(O)CN(C)C` (stereo not shown) [1-Dimethylamino-2-propanol], in series [1], the Bound/Background is 13, the Bound/Free came to 8, the “ECL Bound” value worked out at 6903 and the “ECL Free” value was 1332. The “ECL Background” value in series [1] was determined as 545. Moreover, in series [2], the Bound/Background worked out at 30, the Bound/Free is on record as 8, the “ECL Bound” value amounted to 22446 and the “ECL Free” value is 3463. The “ECL Background” value in series [2] is listed as 741.

Consider `O=S(=O)(O)CC(O)CN1CCN(CCO)CC1` (stereo not shown) [2-hydroxy-3-[4-(2-hydroxyethyl)piperazin-1-yl]propane-1-sulfonic acid], for which, in series [1], the Bound/Background was found to be 5, the Bound/Free is reported as 9, the “ECL Bound” value is reported as 749 and the “ECL Free” value came to 207. Moreover, in series [1], the “ECL Background” value is on record as 142. In addition, in series [2], the Bound/Background was 364, the Bound/Free was 65, the “ECL Bound” value turned out to be 81888 and the “ECL Free” value was found to be 1482. Besides, in series [2], the “ECL Background” value was found to be 225.

In the case of `CN(C)CCCO` [3-Dimethylamino-1-propanol], in series [1], the Bound/Background was found to be 26, the Bound/Free is on record as 6, the “ECL Bound” value turned out to be 5414 and the “ECL Free” value is on record as 1079. Moreover, the “ECL Background” value in series [1] turned out to be 207. In addition, in series [2], the Bound/Background was determined as 78, the Bound/Free was determined as 7, the “ECL Bound” value is listed as 18403 and the “ECL Free” value is 2946. The “ECL Background” value in series [2] came to 236.

Consider `O=S(=O)(O)CCCN1CCN(CCO)CC1` [3-[4-(2-hydroxyethyl)piperazin-1-yl]propane-1-sulfonic acid], for which, in series [1], the Bound/Background is given as 6, the Bound/Free was found to be 9, the “ECL Bound” value is 803 and the “ECL Free” value came out at 207. In addition, in series [1], the “ECL Background” value turned out to be 132. Also, in series [2], the Bound/Background came to 368, the Bound/Free turned out to be 59, the “ECL Bound” value came to 79148 and the “ECL Free” value was 1545. Also, in series [2], the “ECL Background” value is 215.

Regarding `O=S(=O)(O)CCCN1CCOCC1` [(3-[N-Morphilino)-3-propanesulfonic acid], in series [1], the Bound/Background turned out to be 14, the Bound/Free is given as 42, the “ECL Bound” value is 4221 and the “ECL Free” value came out at 388. Moreover, the “ECL Background” value in series [1] worked out at 294. In addition, in series [2], the Bound/Background worked out at 33, the Bound/Free is listed as 12, the “ECL Bound” value is reported as 5857 and the “ECL Free” value is 658. In addition, the “ECL Background” value in series [2] worked out at 177.

With `O=S(=O)(O)CCCN1CCCCCC1` [Homopiperidine-N-3-propanesulfonic acid], in series [1], the Bound/Background was determined as 32, the Bound/Free is listed as 4, the “ECL Bound” value amounted to 14130 and the “ECL Free” value was determined as 4347. Also, in series [1], the “ECL Background” value was determined as 447. Also, in series [2], the Bound/Background is 13, the Bound/Free worked out at 1, the “ECL Bound” value stood at 11683 and the “ECL Free” value is 13833. Besides, the “ECL Background” value in series [2] was determined as 921.

Take `CCCN(CCC)CCCN(CCC)CCC` [N,N,N′,N′-tetrapropylpropane-1,3,-diamine]: in series [1], the Bound/Background was 40, the Bound/Free worked out at 12, the “ECL Bound” value is 9468 and the “ECL Free” value is given as 983. In addition, the “ECL Background” value in series [1] is given as 237. Also, in series [2], the Bound/Background is 139, the Bound/Free is recorded as 17, the “ECL Bound” value stood at 36137 and the “ECL Free” value came to 2397. Besides, the “ECL Background” value in series [2] is 260.

`CCCN(CCC)CCCCS(=O)(=O)O` [N,N-bis propyl-N-4-aminobutanesulfonic acid]: in series [1], the Bound/Background is reported as 67, the Bound/Free is reported as 5, the “ECL Bound” value was found to be 16465 and the “ECL Free” value is recorded as 3685. Besides, the “ECL Background” value in series [1] was found to be 247. For the same molecule, in series [2], the Bound/Background was 88, the Bound/Free amounted to 4, the “ECL Bound” value is recorded as 49778 and the “ECL Free” value came to 13795. The “ECL Background” value in series [2] is on record as 564.

With `O=S(=O)(O)CCN(CCO)CCO` [N,N-bis(2-hydroxyethyl)-2-aminoethane sulfonic acid], in series [1], the Bound/Background was 6, the Bound/Free is 87, the “ECL Bound” value came to 636 and the “ECL Free” value was 118. Also, the “ECL Background” value in series [1] is reported as 112. In series [2], the Bound/Background is reported as 35, the Bound/Free turned out to be 49, the “ECL Bound” value was found to be 2009 and the “ECL Free” value is 97. The “ECL Background” value in series [2] is recorded as 57.

On to `O=S(=O)(O)CCCCN(CCO)CCO` [N,N-bis-(hydroxyethyl)-N-4-aminobutanesulfonic acid], for which, in series [1], the Bound/Background came to 19, the Bound/Free was 34, the “ECL Bound” value is listed as 5560 and the “ECL Free” value turned out to be 452. In addition, in series [1], the “ECL Background” value is listed as 297. In series [2], the Bound/Background turned out to be 19, the Bound/Free came to 6, the “ECL Bound” value turned out to be 27561 and the “ECL Free” value is on record as 5541. The “ECL Background” value in series [2] is reported as 1446.

Regarding `O=S(=O)(O)CCN1CCN(CCO)CC1` [N-2-Hydroxypiperazine-N-2-ethanesulfonic acid], in series [1], the Bound/Background was 29, the Bound/Free is on record as 19, the “ECL Bound” value turned out to be 4233 and the “ECL Free” value amounted to 363. In addition, the “ECL Background” value in series [1] is 148. In series [2], the Bound/Background was 432, the Bound/Free came out at 21, the “ECL Bound” value was 73897 and the “ECL Free” value came out at 3716. Further, in series [2], the “ECL Background” value worked out at 171.

The values above are taken from patent US10753934B2, “Kits suitable for use in electrochemiluminescence methods and methods of effecting a specific-binding non-wash assay” (Meso Scale Technologies, priority 2001, dated 2020).
